Common to all, as to assay: proximity labelling
The target of test [1] is KAHRP-TurboID (P. falciparum) (UniProt Q9TY99).
The target in test [2] is PTP4-TurboID (P. falciparum).
The target of test [3] is KAHRP-TurboID (P. falciparum) (UniProt Q9TY99). The source holds these as a separate data set.

By UniProt entry, the sequences of proteins in these tests, tags left out. Residues count along the entry.
UniProt P13816, residues 26-678: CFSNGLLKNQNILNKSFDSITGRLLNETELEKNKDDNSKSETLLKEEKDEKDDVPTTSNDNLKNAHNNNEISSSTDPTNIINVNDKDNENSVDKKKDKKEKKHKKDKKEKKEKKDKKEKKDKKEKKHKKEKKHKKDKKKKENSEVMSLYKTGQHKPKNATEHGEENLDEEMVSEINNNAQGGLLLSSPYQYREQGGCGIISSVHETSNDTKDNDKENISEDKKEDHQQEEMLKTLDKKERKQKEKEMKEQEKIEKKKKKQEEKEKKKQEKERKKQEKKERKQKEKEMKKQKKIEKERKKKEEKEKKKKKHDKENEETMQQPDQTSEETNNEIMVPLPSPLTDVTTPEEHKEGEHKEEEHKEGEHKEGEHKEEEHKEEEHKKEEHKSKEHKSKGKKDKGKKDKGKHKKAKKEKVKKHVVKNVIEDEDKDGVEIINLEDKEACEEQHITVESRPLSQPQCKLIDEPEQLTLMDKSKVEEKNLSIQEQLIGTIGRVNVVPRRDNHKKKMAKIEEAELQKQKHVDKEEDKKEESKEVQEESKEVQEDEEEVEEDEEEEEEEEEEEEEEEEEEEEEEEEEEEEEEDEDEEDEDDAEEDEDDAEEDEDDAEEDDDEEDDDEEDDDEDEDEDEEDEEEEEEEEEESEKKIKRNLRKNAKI

Read-outs that look alike come from different tables or passages of the source. These are yes or no findings as the source states them, for the method shown. Binding seen in cells or lysates may run through a third protein. These calls come from enrichment with a bait or labelling near it, and not all partners need be listed.

As for GARP (from UniProt P13816 26-678), the binding result in test [1] is on record as “binds”.

B1: PF3D7_0702500 (protein, UniProt Q8IC42 1-253)
chain: MAYPLLEDDLRSIRVAFGTCPGNSTMQFGERFWQGFFFGVIIFFVLSKYIRSYKKRKGMRILKSSSVTKGRLYRGTVFDEDDNVDGHHKKTKAHGLFEEIEKRNGFDLNDDTTNSNNLGEGTHSAVHNLDGQKESQLYKNNSDGSTENHLSGSNSDGRNSSQHSVGSHSVSSQEHKKEHSTHDLPAGRNYSLGNLSTGTTSQGSTSSRHYSLGGQPSSSGRSFSGSKYNTSNLASSSTTESSVSGLNTNEAHV
Regarding B1, the binding result in test [2] and in test [3] was “binds” each time.

Values taken from article PMC10564455.
